doi:10.1101/2025.11.10.687607
These are yes or no findings as the source states them, for the method shown. In cells and extracts the contact can be indirect. Here binding means that the protein was enriched with, or labelled near, the bait; the list need not be complete.

Molecular target: endogenous PfMyoF (Plasmodium falciparum 3D7 (endogenous in parasite lysate)) (UniProt Q8IE50)
Test: affinity purification with mass spectrometry

binding: binds
B1: SEY1 (protein, UniProt Q8ILT5 1-937)
chain: MEKGVEKTQIIDYDGNVIEDLKEWMIDNKLNDLGFSYNVIAVLGSQSSGKSTLLNNLFKTSFDVMNTKQGHSQTTKGLWLSYDKFDDETNNSSSFFKLKKKNKPTLILDVEGTDSKERGDNRLTFEHRSALFCLALADCVIVNLWYHSLGNFTASNYGLLKTVMEVNLELFQQEKNSPKTILLFTVRDWFEEFAPIEVVRNKILDEYINKIWKEMKKPKEAEKLNINNFFIIEVVGLSHGIIKKEDFLKDVNNLRDKWINNLRPSKYSRNIPSDGFAQYCNNIWNTIVKQSQLDIPSQKEMLSTFRCQEIKNNVINNINKEIKEKSIESHNKVIENFKEWAEKNIIQKCLDDYFKDASRYKENICLRTSQELLDYLFTQLQAIVDNNLQYIQRTLCTKFFNELSNMYKICTIEKNTFSFSRDSNLKTVKDNNKNTSHEDIKRDLLNNNQDKCVHLWSNFLYNADKLEYFTFCNFYENYEKSNIEIKTNMKNDDNLKNDDNLKNDAHNNITTHQFNYKPTLSVLSTSIYKDSNRIRNIQCGILLNKTRQTIKNSFKNMDTYLLTTKNTEEYWNNTVQLVLKLQDNINTHLTKCFINLKGTNHNNLNIYNDDMMYNNDDMVFNNNDDDDNNNNNNNNNYYYYNKNDDANLSKDENYNNKFSFSLTNEKGIFQNINNNNEGSDEICYTNALKKIDLIKNKQVYKSTINEDINNKLQNKKYIHELKNYYLDEIMDVLKNKLDEISENLATIIIQRFESVFNYDEYEQPRQWRDISMAELKKIFLKSKNYAFLIIDILQKNIKVELIDDYLPNNFIKDEIIEKGKIKAKRRIQEICRDAQYIQETGSKMSLKNVPVVFWIILLLFGWNEILFFIRMFFKLNVILPLFFAAAFIVSTFVYNGNTQALSYINKIIFYMAKNSYNFFKHIQAISNPPPKNVQKQE
